Laboratory results taken from the supplement of paper PMC6411743.
± gives the standard deviation of the averaged measurements. This is one part of the list.

The chains behind the UniProt entries cited, without tags or fusion partners. Where a name states a change or a piece, a line headed by the entry shows the natural chain unless it says otherwise.
UniProt P62195, whole entry: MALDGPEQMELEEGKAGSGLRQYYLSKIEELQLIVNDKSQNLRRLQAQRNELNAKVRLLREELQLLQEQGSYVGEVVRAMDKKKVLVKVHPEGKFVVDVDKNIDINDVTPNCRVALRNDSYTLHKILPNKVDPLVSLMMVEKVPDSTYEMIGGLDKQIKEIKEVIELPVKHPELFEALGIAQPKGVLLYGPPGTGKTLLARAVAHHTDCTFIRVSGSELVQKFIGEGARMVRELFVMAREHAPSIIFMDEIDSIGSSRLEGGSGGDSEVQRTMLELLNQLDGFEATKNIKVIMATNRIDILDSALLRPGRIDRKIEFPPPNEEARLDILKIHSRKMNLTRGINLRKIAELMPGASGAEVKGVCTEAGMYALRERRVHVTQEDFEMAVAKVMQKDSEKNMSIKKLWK
UniProt P61081: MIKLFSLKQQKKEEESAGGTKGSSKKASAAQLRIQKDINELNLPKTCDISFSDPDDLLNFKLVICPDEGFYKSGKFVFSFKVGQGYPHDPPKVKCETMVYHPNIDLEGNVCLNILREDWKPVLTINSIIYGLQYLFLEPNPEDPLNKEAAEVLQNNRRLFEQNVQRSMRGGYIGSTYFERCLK
UniProt Q00013: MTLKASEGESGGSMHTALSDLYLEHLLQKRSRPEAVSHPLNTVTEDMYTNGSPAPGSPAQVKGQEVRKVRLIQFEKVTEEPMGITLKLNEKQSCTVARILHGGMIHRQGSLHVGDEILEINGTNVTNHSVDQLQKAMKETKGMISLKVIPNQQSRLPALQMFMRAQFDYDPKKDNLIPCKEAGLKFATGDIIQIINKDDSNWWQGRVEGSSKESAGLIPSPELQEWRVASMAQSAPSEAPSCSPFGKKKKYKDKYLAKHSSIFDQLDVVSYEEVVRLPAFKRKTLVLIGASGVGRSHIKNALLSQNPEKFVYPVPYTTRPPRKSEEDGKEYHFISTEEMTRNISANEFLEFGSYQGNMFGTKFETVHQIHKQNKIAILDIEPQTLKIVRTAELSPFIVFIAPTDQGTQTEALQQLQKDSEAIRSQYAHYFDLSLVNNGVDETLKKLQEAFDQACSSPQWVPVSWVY
UniProt P57772: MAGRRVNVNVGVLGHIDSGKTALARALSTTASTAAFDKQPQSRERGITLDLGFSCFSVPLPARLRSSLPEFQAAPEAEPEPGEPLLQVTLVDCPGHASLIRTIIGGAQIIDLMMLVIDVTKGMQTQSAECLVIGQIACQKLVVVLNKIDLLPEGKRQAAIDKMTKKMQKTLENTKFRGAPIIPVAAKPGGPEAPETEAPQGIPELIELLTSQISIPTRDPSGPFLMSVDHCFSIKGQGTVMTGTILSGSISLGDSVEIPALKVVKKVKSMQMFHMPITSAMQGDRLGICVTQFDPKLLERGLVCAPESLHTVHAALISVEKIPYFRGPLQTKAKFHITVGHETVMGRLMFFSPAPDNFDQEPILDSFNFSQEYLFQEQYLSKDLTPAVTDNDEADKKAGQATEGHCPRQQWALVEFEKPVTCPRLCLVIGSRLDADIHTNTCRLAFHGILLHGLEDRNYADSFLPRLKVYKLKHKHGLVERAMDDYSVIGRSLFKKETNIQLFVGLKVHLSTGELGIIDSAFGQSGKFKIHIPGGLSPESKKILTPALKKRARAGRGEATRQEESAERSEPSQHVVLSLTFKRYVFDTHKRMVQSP
UniProt P61244, whole entry: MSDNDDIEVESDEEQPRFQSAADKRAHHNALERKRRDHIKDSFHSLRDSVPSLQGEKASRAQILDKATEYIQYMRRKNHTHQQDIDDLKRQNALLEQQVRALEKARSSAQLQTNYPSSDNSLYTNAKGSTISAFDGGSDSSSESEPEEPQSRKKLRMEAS
UniProt P61009: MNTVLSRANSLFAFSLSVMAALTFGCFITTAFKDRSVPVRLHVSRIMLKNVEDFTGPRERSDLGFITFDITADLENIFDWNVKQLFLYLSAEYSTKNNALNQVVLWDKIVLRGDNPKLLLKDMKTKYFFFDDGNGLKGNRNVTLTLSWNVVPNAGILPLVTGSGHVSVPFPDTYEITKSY
UniProt P68371, whole entry: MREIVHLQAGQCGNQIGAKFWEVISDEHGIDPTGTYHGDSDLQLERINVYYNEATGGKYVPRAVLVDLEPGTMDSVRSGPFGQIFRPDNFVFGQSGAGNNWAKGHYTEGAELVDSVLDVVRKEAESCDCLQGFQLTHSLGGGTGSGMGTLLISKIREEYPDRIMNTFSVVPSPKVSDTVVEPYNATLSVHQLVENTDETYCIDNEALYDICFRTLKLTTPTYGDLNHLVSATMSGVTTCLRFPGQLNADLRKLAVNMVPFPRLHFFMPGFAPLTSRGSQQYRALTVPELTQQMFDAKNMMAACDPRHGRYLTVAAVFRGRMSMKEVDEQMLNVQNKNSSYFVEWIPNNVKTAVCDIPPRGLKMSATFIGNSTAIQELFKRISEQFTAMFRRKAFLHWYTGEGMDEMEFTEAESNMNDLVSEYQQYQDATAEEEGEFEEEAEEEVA
UniProt P54578: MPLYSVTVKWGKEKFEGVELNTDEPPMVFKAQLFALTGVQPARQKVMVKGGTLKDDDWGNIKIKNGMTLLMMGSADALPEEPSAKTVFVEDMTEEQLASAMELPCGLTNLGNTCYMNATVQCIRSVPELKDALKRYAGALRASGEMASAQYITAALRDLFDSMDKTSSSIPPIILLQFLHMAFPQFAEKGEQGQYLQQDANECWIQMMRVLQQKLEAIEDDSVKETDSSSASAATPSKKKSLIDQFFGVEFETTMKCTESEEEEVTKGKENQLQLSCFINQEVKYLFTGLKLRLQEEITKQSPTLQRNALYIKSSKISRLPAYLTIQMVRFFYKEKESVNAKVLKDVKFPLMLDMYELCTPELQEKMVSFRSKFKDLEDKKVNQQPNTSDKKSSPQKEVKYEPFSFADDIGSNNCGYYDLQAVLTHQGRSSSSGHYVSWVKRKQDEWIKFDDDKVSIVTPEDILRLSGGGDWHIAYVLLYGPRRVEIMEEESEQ
UniProt Q00534, whole entry: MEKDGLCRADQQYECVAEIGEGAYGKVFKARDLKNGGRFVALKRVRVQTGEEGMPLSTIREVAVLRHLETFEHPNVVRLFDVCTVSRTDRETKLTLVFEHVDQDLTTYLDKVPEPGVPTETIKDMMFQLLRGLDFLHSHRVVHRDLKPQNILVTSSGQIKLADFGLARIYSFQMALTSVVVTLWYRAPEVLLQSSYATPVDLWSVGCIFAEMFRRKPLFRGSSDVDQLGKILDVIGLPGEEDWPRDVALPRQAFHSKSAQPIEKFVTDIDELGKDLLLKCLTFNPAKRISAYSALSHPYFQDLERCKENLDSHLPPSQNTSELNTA
UniProt P55199: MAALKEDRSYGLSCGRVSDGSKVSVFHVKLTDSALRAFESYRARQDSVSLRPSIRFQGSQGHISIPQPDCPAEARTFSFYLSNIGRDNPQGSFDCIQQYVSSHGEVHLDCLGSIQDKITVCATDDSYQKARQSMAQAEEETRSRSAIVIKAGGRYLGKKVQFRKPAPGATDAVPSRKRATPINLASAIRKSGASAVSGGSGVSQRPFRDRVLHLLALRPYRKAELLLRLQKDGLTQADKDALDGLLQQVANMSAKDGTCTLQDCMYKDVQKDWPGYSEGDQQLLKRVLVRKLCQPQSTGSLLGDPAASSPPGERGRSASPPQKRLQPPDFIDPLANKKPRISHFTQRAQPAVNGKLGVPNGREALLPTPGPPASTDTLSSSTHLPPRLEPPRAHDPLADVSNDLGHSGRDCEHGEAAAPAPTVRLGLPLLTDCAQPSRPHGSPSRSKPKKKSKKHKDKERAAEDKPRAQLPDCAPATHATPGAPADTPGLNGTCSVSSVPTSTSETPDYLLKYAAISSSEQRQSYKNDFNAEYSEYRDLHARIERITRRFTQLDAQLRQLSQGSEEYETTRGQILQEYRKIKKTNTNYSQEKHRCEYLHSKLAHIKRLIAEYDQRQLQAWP
UniProt P55010, whole entry: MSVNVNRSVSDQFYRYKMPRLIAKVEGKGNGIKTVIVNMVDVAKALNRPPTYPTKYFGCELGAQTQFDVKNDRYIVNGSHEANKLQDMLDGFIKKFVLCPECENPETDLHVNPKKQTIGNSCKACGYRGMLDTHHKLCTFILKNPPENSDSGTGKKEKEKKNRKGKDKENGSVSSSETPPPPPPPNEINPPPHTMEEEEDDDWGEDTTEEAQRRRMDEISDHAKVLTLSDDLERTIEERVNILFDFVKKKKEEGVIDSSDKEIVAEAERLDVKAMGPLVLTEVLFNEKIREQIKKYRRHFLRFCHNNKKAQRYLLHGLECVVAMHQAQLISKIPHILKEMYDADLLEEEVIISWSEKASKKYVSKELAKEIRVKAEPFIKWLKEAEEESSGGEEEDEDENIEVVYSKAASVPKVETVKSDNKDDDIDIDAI
UniProt P62253: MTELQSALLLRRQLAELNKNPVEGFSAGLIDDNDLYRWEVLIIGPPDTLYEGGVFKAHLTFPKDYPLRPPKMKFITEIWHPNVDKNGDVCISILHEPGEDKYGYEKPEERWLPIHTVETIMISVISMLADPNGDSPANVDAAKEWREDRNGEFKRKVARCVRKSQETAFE
UniProt P50416: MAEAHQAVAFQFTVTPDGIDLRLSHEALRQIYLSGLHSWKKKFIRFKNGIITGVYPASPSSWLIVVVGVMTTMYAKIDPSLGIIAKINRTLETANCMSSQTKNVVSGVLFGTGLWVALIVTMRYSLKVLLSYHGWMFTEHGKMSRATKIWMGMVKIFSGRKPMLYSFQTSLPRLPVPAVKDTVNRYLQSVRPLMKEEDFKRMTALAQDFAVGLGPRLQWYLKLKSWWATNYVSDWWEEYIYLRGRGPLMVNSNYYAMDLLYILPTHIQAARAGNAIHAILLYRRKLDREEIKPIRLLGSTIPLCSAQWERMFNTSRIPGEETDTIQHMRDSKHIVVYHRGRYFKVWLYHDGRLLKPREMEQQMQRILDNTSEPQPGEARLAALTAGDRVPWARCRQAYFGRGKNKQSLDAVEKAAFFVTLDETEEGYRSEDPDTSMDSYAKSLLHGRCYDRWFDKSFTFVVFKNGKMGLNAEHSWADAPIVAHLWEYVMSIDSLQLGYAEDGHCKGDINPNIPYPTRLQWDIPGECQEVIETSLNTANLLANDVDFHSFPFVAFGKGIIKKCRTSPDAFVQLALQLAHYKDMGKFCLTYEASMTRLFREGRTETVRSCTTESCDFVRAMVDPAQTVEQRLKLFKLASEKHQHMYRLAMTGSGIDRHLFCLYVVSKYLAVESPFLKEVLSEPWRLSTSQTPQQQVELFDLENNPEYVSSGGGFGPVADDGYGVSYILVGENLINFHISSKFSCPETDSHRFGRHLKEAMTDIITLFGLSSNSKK
UniProt P60468, whole entry: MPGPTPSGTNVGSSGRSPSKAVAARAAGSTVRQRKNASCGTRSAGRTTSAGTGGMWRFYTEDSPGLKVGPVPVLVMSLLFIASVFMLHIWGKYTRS
UniProt P55957: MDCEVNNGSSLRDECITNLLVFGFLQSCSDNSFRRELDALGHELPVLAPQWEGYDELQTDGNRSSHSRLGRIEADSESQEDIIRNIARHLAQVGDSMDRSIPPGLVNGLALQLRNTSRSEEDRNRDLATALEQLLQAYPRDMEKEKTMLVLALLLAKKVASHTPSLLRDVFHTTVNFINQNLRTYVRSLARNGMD
UniProt P62314, whole entry: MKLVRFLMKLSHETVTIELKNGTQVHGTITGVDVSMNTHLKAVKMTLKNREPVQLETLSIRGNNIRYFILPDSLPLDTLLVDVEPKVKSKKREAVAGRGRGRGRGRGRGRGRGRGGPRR
UniProt P82970: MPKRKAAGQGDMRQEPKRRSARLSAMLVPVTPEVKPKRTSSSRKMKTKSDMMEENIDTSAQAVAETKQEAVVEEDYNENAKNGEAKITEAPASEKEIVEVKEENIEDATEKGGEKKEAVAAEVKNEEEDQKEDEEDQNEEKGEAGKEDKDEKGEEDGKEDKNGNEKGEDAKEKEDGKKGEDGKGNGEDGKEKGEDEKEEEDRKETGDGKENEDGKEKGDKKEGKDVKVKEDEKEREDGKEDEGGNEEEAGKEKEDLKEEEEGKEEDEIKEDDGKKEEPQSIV
UniProt P60842, whole entry: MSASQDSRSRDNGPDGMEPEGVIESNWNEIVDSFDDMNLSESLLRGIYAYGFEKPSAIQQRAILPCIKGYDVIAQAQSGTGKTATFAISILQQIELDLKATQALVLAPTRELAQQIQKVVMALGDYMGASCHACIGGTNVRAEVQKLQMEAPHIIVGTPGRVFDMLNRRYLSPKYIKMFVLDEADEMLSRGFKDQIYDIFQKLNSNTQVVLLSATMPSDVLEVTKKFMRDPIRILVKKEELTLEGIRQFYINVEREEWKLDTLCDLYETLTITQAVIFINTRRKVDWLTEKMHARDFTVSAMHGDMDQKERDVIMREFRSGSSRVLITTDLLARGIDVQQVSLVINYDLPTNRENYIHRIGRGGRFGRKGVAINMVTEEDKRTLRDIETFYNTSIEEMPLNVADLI
UniProt P62330: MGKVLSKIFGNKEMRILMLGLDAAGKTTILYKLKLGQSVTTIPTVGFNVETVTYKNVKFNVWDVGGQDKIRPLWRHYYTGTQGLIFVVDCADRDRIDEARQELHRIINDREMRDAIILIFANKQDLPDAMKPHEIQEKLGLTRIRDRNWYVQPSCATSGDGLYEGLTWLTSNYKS

Each target was assayed with Nc1nc2c(ncn2[C@@H]2O[C@H](COP(=O)(O)OP(=O)(O)OP(=O)(O)O)[C@@H](O)[C@H]2O)c(=O)[nH]1 [guanosine triphosphate] (assay: NP40-soluble protein abundance relative to vehicle (solubility fold change) (ratio); higher = more soluble protein in presence of GTP). Conditions: concentration: 10mM.
Outline: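 Across three independent experiments, values are fold changes against the detergent-processed vehicle for each replicate, based on vsn-normalised intensities. The samples were Jurkat crude lysate treated with eight concentrations (0.1 to 10 mM) for 10 min at room temperature and then 3 min at 37 °C. Lysate was solubilised with 0.8% NP40 and benzonase, ultracentrifuged, and the supernatant analysed by TMT-labelled LC-MS/MS.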
Work on UniProt P51157 and related entries yielded an NP40-soluble protein abundance of 0.894 ± 0.018. UniProt P62195 was tested, and the NP40-soluble protein abundance was 0.977 ± 0.15. UniProt P62072 was tested, and the NP40-soluble protein abundance was 1.16 ± 0.037. Target UniProt P61081 has an NP40-soluble protein abundance of 0.861 ± 0.058. With MPP1 (UniProt Q00013) the NP40-soluble protein abundance was 0.903 ± 0.068. Target UniProt P61160 and related entries has an NP40-soluble protein abundance of 0.883 ± 0.048. UniProt P84090 was tested, and the NP40-soluble protein abundance was 1.95 ± 0.38. UniProt P57772 and related entries showed an NP40-soluble protein abundance of 1.04 ± 0.032. Target UniProt P61244 and related entries has an NP40-soluble protein abundance of 0.911 ± 0.017. NOP14 (UniProt P78316) gave an NP40-soluble protein abundance of 1.02 ± 0.034. UniProt P61009 was tested, and the NP40-soluble protein abundance was 0.87 ± 0.025. UniProt P68371 showed an NP40-soluble protein abundance of 0.933 ± 0.18. Target UniProt P61129 has an NP40-soluble protein abundance of 1.02 ± 0.063. Work on UniProt P54578 and related entries yielded an NP40-soluble protein abundance of 0.876 ± 0.046. UniProt P62857 was tested, and the NP40-soluble protein abundance was 0.735 ± 0.17. UniProt P61764 and related entries showed an NP40-soluble protein abundance of 0.906 ± 0.069. CDK6 (UniProt Q00534) was tested, and the NP40-soluble protein abundance was 0.854 ± 0.039. Target UniProt P55199 and related entries has an NP40-soluble protein abundance of 1.03 ± 0.034. Work on NCBP2 (UniProt P52298) yielded an NP40-soluble protein abundance of 1.09 ± 0.092. UniProt P98155 and related entries showed an NP40-soluble protein abundance of 1.05 ± 0.031. In the case of EIF5 (UniProt P55010), the NP40-soluble protein abundance is reported as 0.922 ± 0.07. Work on UniProt P52564 yielded an NP40-soluble protein abundance of 0.882 ± 0.056. UniProt P62253 showed an NP40-soluble protein abundance of 0.83 ± 0.075. With EIF6 (UniProt P56537) the NP40-soluble protein abundance was 0.95 ± 0.049. With CPT1A (UniProt P50416) the NP40-soluble protein abundance was 1.02 ± 0.098. Target SEC61B (UniProt P60468) has an NP40-soluble protein abundance of 1.09 ± 0.22. UniProt P55957 and related entries was tested, and the NP40-soluble protein abundance was 1.09 ± 0.14. UniProt P61962 was tested, and the NP40-soluble protein abundance was 0.964 ± 0.03. With UniProt P62314 the NP40-soluble protein abundance was 1.22 ± 0.092. UniProt P82970 and related entries was tested, and the NP40-soluble protein abundance was 1.03 ± 0.12. Target KPNA1 (UniProt P52294) has an NP40-soluble protein abundance of 1.057 ± 0.0089. In the case of UniProt P60842, the NP40-soluble protein abundance is reported as 0.859 ± 0.077. GRB2 (UniProt P62993) gave an NP40-soluble protein abundance of 0.873 ± 0.082. SMS (UniProt P52788) was tested, and the NP40-soluble protein abundance was 0.917 ± 0.021. For UniProt P62330, the NP40-soluble protein abundance was 0.816 ± 0.15. Work on FOXK1 (UniProt P85037) yielded an NP40-soluble protein abundance of 1.07 ± 0.12. In the case of MRPS6 (UniProt P82932), the NP40-soluble protein abundance is reported as 1.3 ± 0.42. UniProt P78406 and related entries gave an NP40-soluble protein abundance of 1.11 ± 0.075. UniProt P82912 and related entries was tested, and the NP40-soluble protein abundance was 1.24 ± 0.35.
